{"sequences": {"note": "Sequences of proteins named here, by UniProt entry; tags and fusion partners are left off. A change or cut given only in a name is not applied to a line headed by its entry.", "UniProt P51450": "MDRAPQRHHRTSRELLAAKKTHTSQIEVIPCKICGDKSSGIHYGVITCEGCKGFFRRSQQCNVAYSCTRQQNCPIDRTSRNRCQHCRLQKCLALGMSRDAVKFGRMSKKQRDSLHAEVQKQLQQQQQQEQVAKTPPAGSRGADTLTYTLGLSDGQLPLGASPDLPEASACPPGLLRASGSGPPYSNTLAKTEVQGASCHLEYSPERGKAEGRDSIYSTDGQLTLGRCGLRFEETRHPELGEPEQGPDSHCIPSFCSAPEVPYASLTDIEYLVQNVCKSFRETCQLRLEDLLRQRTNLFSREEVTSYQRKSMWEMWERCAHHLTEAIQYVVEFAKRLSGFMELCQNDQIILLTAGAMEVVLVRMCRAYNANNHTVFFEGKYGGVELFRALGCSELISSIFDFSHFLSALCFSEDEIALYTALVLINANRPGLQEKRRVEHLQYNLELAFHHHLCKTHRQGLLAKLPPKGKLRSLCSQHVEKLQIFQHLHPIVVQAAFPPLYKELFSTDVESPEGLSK"}, "source": "PubChem BioAssay AID2551", "about": "(National Center for Advancing Translational Sciences (NCATS), 2010)", "note": "Hit rate of the full screen: of about 310,000 compounds, about 17,000 (5.5%) were called active. The shares of active, inactive and inconclusive entries below differ from those in the screen. Calls follow the shape of the dose curve; as a rule, active = well fitted inhibition curve with a large enough effect; inconclusive = small, poorly fitted or top-dose-only effect, or effect the other way; inactive = no such curve, though single readings can be large or run the other way. Potencies beside an inconclusive call are fits to weak or partial responses and may not hold up. Potency is read from the fitted curve at half-maximal effect.", "data": [{"biological_target": "Nuclear receptor ROR-gamma (Mus musculus) (UniProt P51450)", "test": "qHTS for inhibitors of ROR gamma transcriptional activity; also: nearly all actives have a fitted effect of over 60% in size", "conditions": "Drosophila S2 Gal4-RORgamma UAS-luciferase reporter, 20 h; series mostly up to 53.6 µM", "in_short": "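Stable Schneider cell line, Gal4 DNA-binding domain fused to ROR gamma, UAS-luciferase. Cmpd 1 hr RT → CuSO4 700 uM final → 20 hr RT → luciferase reagent 10 min → luminescence.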", "values": [{"compound": "CC(C)[C@H](NC(=O)c1cccc(S(=O)(=O)N2CCOCC2)c1)C(=O)Nc1nc2ccccc2s1", "Potency": "inconclusive: 17.8 µM [activator, partial curve]"}, {"compound": "COc1ccc(C2=C(CN(C)C)C(c3ccccc3)c3ccccc3O2)cc1", "note": "(stereo not drawn)", "Potency": "inconclusive: 0.0794 µM [activator, full curve, poor fit]"}, {"compound": "COc1ccc(/C=N/Nc2ncc(-c3ccccc3)cn2)c(OC)c1", "Potency": "inconclusive: 35.5 µM [inhibitor, single point]"}, {"compound": "Brc1ccc(CNc2cc3c(cc2Br)OCCO3)cc1", "Potency": "inconclusive: 7.94 µM [activator, partial curve]"}, {"compound": "O=C(COC(=O)CSc1nnc(-c2ccc(Cl)cc2)o1)Nc1cc(Cl)cc(Cl)c1", "Potency": "inconclusive: 0.0045 µM [inhibitor, full curve, poor fit]"}, {"compound": "Cc1ccc(-c2csc3nnc(SCC(=O)N4CCN(Cc5ccccc5)CC4)n23)cc1", "Potency": "inactive"}, {"compound": "Cc1ccc(N(C)S(=O)(=O)c2cccc(C(=O)Nc3nnc(C4CC4)s3)c2)cc1", "Potency": "active: 11.2 µM"}, {"compound": "ClC1(Cl)CC1CSc1nc2ccccc2[nH]1", "note": "(stereo not drawn)", "Potency": "inconclusive: 2.51 µM [activator, full curve, poor fit]"}, {"compound": "CC(C)c1ccc(NC(=O)COC(=O)/C=C/c2cccc([N+](=O)[O-])c2)cc1", "Potency": "inconclusive: 2.82 µM [activator, full curve, poor fit]"}, {"compound": "O=C(OC1CCCCC1=O)c1cc(=O)c2ccccc2o1", "note": "(stereo not drawn)", "Potency": "inconclusive: 35.5 µM [inhibitor, single point]"}, {"compound": "Cc1ccc(CCNC(=O)c2ccc(CS(=O)(=O)Cc3ccccc3F)o2)cc1", "Potency": "inconclusive: 15.8 µM [activator, single point]"}, {"compound": "Cc1cccc(Oc2ncnc(N)c2[N+](=O)[O-])c1", "Potency": "inconclusive: 2.82 µM [inhibitor, partial curve, poor fit]"}, {"compound": "Cc1c(Cc2ccccc2)c(=O)n2c([nH]c3ccccc32)c1C#N", "Potency": "inactive"}, {"compound": "COc1ccc2c(c1OC)C(=O)N(c1cccc(C)c1)C2", "Potency": "inconclusive: 12.6 µM [inhibitor, single point]"}, {"compound": "O=C(Cn1cnc2c(nnn2Cc2ccccc2F)c1=O)NCc1ccco1", "Potency": "inconclusive: 17.8 µM [activator, single point]"}, {"compound": "CCO[C@H]1OC(C(=O)N2CCN(Cc3ccccc3)CC2)=C[C@@H](c2ccc(C(F)(F)F)cc2)[C@@H]1CCCO", "Potency": "inconclusive: 3.55 µM [activator, partial curve]"}, {"compound": "S=c1[nH]nc(-c2ccncc2)n1Cc1ccco1", "Potency": "inactive"}, {"compound": "O=C(Cn1nc(-c2ccc(Cl)cc2)ccc1=O)NCc1ccc2c(c1)OCO2", "Potency": "inconclusive: 2.51 µM [inhibitor, partial curve]"}, {"compound": "O=C1N=C(N2CCOCC2)S/C1=C\\C=C/c1ccccc1", "Potency": "inconclusive: 5.01 µM [activator, single point]"}, {"compound": "COC(=O)[C@H]1O[C@@H](c2cc(OC)c(C)c(OC)c2OCc2ccccc2)[C@H](C)[C@@H]2O[C@]12C", "Potency": "inactive"}, {"compound": "N#Cc1ccsc1NC(=O)CCS(=O)(=O)c1ccccc1", "Potency": "inconclusive: 17.8 µM [activator, single point]"}, {"compound": "Cc1cccc(Oc2ccc(S(=O)(=O)N3CCCCC3)cc2N)c1", "Potency": "inactive"}, {"compound": "Cc1cccn2c(=O)c3cc(S(=O)(=O)c4ccccc4)c(=N)n(Cc4ccco4)c3nc12", "Potency": "inconclusive: 22.4 µM [inhibitor, single point]"}, {"compound": "COc1ccc(OC)c(NC(=S)NCc2cccs2)c1", "Potency": "active: 14.1 µM"}, {"compound": "CCCCCCCCCOC(=O)C(CC(=O)O)N1CCOCC1", "note": "(stereo not drawn)", "Potency": "inconclusive: 3.16 µM [inhibitor, full curve]"}, {"compound": "CCCC(=O)Nc1ccc(C(=O)/C=C/c2ccc(SC)cc2)cc1", "Potency": "inconclusive: 17.8 µM [inhibitor, single point]"}, {"compound": "CC1CCN(C(=O)c2[nH]cnc2C(=O)NCC(=O)OCc2ccccc2)CC1", "Potency": "inactive"}, {"compound": "CCn1cc(Cl)c(C(=O)Nc2nc3ccccc3n2CCN2CCCCC2)n1", "Potency": "active: 10 µM"}, {"compound": "COc1ccc(/C=C2/CCc3ccccc3C2=O)cc1OC", "Potency": "inconclusive: 0.355 µM [activator, full curve]"}, {"compound": "COc1ccc2oc(C(=O)Nc3nc4ccccc4[nH]3)c(C)c2c1", "Potency": "inconclusive: 0.355 µM [inhibitor, full curve, poor fit]"}, {"compound": "COc1ccc2c(c1)c(C(=O)O)c(C)n2CCc1ccc(OC)c(OC)c1", "Potency": "inconclusive: 1.26 µM [activator, single point]"}, {"compound": "Clc1ccc(CSc2nnc(-c3ccccn3)n2Cc2ccco2)c(Cl)c1", "Potency": "inconclusive: 35.5 µM [inhibitor, single point]"}, {"compound": "S=C1NCN(Cc2cccnc2)CN1Cc1ccccc1", "Potency": "inconclusive: 2.51 µM [inhibitor, partial curve]"}, {"compound": "CCc1ccc(-c2cn(-c3nc(C)cc(C)n3)c(=N)o2)cc1", "Potency": "inconclusive: 17.8 µM [inhibitor, partial curve, poor fit]"}, {"compound": "O=C(Cc1csc(NC(=O)c2ccc(F)cc2)n1)NO", "Potency": "inactive"}, {"compound": "COc1ccc(NC(=S)N2CCCC(c3nc4ccc(C)cc4[nH]3)C2)cc1", "note": "(stereo not drawn)", "Potency": "inconclusive: 14.1 µM [inhibitor, single point]"}, {"compound": "CCOC(=O)c1cnc(-n2nc(C)cc2C)nc1Nc1ccccc1OC", "Potency": "active: 1.26 µM"}, {"compound": "CCOC(=O)c1sc2nc(CC(=O)OC)nc(N3CCN(c4ccccn4)CC3)c2c1C", "Potency": "inconclusive: 17.8 µM [activator, single point]"}, {"compound": "CC1(c2ccc(OC(F)F)cc2)NC(=O)N(CC(=O)Nc2ccc3c(c2)OCO3)C1=O", "note": "(stereo not drawn)", "Potency": "inactive"}, {"compound": "COc1ccc(CNC(=O)c2cc(S(=O)(=O)N3CCOCC3)cn2C)cc1", "Potency": "inconclusive: 17.8 µM [activator, partial curve, poor fit]"}, {"compound": "Clc1cc(Br)ccc1OCCn1ccnc1", "Potency": "inactive"}, {"compound": "O=C(CSc1ccc(-c2cccs2)nn1)NCc1ccccc1Cl", "Potency": "inconclusive: 0.158 µM [inhibitor, full curve, poor fit]"}, {"compound": "O=C(Cn1cnc2c(cnn2-c2ccccc2)c1=O)NCCc1ccccc1", "Potency": "inactive"}, {"compound": "CC(=O)N(C)c1ccc(C(O)(C(F)(F)F)C(F)(F)F)cc1", "Potency": "active: 12.6 µM"}, {"compound": "O=C(NN1C(=O)/C(=C\\c2ccc(O)c([N+](=O)[O-])c2)SC1=S)c1ccccc1Cl", "Potency": "inconclusive: 11.2 µM [activator, single point]"}, {"compound": "COC(=O)COc1ccc(/C=N/NC(=O)c2ccc(N(Cc3ccccc3)S(C)(=O)=O)cc2)cc1", "Potency": "inconclusive: 35.5 µM [inhibitor, single point]"}, {"compound": "Brc1ccc(-c2cnc(-c3cccs3)o2)cc1", "Potency": "inconclusive: 20 µM [inhibitor, single point]"}, {"compound": "COc1ccccc1OCCn1cc(C#N)c2ccccc21", "Potency": "inconclusive: 11.2 µM [inhibitor, partial curve]"}, {"compound": "CCCCCCCCCn1ccc(=N)cc1", "Potency": "inconclusive: 10 µM [inhibitor, partial curve, poor fit]"}, {"compound": "O=C(c1ccc(Br)cc1)N1CCN(S(=O)(=O)c2ccccc2)CC1", "Potency": "inconclusive: 8.91 µM [activator, partial curve]"}, {"compound": "O=C(NC1CCN(Cc2ccccc2)CC1)C12CC3CC(CC(C3)C1)C2", "Potency": "inconclusive: 35.5 µM [activator, single point]"}, {"compound": "Cc1cccc(N2CCN(C(=O)c3cccc(N4C(=O)C5C6C=CC(C6)C5C4=O)c3)CC2)c1C", "note": "(stereo not drawn)", "Potency": "inconclusive: 20 µM [activator, single point]"}, {"compound": "COc1ccc(OCCCON2C(=O)c3ccccc3C2=O)cc1", "Potency": "inconclusive: 35.5 µM [inhibitor, single point]"}, {"compound": "Cc1ccc(NCC(=O)Nc2cccc(F)c2)cc1S(=O)(=O)N1CCCCCC1", "Potency": "inconclusive: 14.1 µM [activator, single point]"}, {"compound": "CCc1ccc2nc(N3C(=O)C(O)=C(C(=O)c4ccco4)C3c3cccs3)sc2c1", "note": "(stereo not drawn)", "Potency": "inconclusive: 28.2 µM [activator, single point]"}, {"compound": "CCOC(=O)c1sc2nc(C)nc(NCc3ccccc3)c2c1C", "Potency": "inactive"}, {"compound": "COc1cc(NC(=O)CCCn2c(=S)[nH]c3ccccc3c2=O)cc(OC)c1OC", "Potency": "inconclusive: 14.1 µM [inhibitor, single point]"}, {"compound": "CN(Cc1ccccc1)S(=O)(=O)c1ccc(OCC(=O)N2CCOCC2)cc1", "Potency": "inconclusive: 3.16 µM [inhibitor, full curve]"}, {"compound": "S=C(NCc1ccco1)N1CCN(c2nc(-c3ccccc3)cs2)CC1", "Potency": "inactive"}, {"compound": "N#Cc1cc([N+](=O)[O-])ccc1Oc1cccc(/C=N/NC(=O)c2cccc(Cl)c2)c1", "Potency": "inconclusive: 12.6 µM [inhibitor, single point]"}, {"compound": "Cc1ccc(NC(=O)C(C)Sc2nnc(C)n2C)cc1", "note": "(stereo not drawn)", "Potency": "inactive"}, {"compound": "O=S(=O)(c1ccc2c(c1)OCCO2)N1CCN(c2ncnc3sccc23)CC1", "Potency": "inconclusive: 20 µM [inhibitor, single point]"}, {"compound": "Cn1cc(CNC(=O)C23CC4CC(CC(C4)C2)C3)cn1", "Potency": "inconclusive: 35.5 µM [activator, single point]"}, {"compound": "O=C(NCC1CCCO1)/C(=C\\c1cccc([N+](=O)[O-])c1)NC(=O)c1ccccc1", "note": "(stereo not drawn)", "Potency": "inactive"}, {"compound": "CCCCc1cc(=O)oc2cc(OCC(=O)N(CC)CC)ccc12", "Potency": "inactive"}, {"compound": "CC(C)CCNc1nc(N)c([N+](=O)[O-])c(NCC2CCCO2)n1", "note": "(stereo not drawn)", "Potency": "inconclusive: 11.2 µM [activator, single point]"}, {"compound": "Cc1onc(C(=O)NN)c1C(=O)N1CCN(C(c2ccccc2)c2ccccc2)CC1", "Potency": "inactive"}, {"compound": "Cc1ccc(SC(C)C(=O)Nc2ncn[nH]2)cc1", "note": "(stereo not drawn)", "Potency": "inconclusive: 25.1 µM [inhibitor, single point]"}]}]}
